Sequences of proteins named here, by UniProt entry; tags and fusion partners are left off.
UniProt Q01094: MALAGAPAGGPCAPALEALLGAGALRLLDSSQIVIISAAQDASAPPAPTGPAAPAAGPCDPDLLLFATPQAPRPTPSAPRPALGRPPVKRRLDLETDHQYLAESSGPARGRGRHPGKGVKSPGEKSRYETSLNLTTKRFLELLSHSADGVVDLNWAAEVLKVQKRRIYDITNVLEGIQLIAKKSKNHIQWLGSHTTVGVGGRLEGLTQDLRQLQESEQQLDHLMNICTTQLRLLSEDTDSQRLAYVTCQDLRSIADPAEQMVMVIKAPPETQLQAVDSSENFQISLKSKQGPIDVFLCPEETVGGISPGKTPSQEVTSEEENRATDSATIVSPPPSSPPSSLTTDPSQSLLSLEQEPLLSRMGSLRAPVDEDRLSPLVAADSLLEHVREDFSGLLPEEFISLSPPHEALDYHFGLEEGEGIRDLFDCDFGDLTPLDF
UniProt P35637: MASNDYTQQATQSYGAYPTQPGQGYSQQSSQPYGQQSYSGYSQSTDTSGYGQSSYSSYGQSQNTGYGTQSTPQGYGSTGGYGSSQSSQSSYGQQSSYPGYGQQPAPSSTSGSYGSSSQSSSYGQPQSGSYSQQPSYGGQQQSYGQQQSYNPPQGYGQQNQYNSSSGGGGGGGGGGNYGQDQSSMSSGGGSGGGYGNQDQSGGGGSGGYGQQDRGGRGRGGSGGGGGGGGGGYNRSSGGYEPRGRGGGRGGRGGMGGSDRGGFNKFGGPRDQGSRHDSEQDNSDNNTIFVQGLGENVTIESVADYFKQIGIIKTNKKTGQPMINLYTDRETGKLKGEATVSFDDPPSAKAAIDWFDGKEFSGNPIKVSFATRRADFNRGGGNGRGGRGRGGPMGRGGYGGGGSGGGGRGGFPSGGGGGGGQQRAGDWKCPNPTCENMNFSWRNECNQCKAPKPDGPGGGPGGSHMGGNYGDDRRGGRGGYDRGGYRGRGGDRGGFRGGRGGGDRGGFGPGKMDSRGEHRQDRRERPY
UniProt Q01844: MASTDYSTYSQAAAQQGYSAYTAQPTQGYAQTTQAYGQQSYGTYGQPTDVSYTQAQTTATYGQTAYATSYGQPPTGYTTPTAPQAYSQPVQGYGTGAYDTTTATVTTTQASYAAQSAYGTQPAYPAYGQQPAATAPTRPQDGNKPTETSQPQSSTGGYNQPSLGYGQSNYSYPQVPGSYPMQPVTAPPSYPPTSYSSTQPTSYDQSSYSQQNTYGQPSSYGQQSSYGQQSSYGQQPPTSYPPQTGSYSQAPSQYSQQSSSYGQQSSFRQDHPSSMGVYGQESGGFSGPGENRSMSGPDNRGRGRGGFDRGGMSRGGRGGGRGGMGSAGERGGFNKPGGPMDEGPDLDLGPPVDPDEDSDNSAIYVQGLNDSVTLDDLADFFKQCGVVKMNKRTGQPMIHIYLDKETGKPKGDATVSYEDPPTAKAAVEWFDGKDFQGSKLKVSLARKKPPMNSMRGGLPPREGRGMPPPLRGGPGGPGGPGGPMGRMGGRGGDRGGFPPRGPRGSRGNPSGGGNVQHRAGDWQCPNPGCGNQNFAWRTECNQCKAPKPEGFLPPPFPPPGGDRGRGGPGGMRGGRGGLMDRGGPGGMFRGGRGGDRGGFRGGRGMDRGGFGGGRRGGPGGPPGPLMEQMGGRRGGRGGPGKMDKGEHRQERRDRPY
UniProt P17844: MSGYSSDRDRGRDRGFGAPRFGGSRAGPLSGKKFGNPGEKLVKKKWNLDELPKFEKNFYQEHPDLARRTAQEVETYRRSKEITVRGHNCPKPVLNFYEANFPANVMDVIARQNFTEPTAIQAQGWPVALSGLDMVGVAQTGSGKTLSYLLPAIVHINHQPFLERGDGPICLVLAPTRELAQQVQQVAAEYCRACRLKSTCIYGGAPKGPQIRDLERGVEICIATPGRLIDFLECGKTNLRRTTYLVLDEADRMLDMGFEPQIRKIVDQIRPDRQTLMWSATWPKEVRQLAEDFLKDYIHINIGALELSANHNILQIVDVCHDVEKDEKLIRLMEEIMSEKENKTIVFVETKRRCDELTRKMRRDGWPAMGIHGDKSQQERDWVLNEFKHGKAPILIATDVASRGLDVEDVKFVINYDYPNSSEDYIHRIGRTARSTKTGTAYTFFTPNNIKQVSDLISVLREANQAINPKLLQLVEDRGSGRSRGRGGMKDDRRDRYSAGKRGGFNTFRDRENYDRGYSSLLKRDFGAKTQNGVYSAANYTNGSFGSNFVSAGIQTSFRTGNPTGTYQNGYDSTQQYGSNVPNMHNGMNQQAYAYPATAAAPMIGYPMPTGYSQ
UniProt Q92841: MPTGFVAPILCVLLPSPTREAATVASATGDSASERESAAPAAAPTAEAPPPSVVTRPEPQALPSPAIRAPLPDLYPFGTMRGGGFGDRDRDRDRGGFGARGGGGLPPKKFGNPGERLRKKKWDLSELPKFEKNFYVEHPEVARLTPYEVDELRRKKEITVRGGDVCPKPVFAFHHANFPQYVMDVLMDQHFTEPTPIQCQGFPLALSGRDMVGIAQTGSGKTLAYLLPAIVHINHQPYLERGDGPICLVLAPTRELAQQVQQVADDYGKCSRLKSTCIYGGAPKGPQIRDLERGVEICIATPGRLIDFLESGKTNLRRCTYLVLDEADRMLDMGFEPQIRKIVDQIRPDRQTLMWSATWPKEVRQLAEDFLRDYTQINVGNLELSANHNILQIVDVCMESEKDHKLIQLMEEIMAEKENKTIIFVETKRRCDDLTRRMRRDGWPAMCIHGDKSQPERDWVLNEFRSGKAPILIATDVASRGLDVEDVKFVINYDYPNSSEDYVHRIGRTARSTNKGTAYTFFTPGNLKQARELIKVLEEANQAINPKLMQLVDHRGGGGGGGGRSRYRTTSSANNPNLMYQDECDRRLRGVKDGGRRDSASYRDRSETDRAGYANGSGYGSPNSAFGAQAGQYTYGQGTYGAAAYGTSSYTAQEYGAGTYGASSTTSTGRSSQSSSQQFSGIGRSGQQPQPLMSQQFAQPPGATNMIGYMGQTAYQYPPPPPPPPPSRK
UniProt Q14186: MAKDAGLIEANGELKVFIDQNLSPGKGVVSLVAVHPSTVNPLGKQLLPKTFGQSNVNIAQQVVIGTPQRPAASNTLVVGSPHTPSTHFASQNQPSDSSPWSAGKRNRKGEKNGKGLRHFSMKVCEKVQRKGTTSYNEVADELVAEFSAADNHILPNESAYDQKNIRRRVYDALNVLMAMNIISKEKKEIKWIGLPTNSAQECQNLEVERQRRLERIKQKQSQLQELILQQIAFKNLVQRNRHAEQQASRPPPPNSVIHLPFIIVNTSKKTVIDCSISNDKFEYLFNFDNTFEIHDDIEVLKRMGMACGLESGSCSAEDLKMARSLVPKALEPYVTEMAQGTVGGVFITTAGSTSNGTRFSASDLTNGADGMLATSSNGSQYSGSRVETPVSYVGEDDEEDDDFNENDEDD
UniProt Q15208: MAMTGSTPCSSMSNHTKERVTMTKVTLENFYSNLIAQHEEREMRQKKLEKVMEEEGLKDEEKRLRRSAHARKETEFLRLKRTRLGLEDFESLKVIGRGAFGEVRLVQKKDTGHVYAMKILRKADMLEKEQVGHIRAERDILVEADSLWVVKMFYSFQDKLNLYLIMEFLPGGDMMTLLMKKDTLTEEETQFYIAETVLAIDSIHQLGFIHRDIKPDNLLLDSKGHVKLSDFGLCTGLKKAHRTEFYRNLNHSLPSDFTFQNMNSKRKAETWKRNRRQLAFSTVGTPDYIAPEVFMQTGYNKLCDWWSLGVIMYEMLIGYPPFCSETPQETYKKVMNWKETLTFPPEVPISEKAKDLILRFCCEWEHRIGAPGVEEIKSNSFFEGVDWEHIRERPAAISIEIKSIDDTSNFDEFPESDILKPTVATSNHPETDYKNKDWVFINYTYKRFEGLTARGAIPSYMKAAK

In PMC11675670:

Molecular target: 3xFLAG-tagged E2F1 (UniProt Q01094)
Assay: affinity purification with mass spectrometry; 3xFLAG-E2F1 induced or not with Doxycyclin (1 ug/mL) in T-REx-HeLa-3xFLAG-E2F1 cells; nuclear extracts (Dignam method) immunoprecipitated with anti-FLAG M2 affinity beads, eluted with SDS sample buffer, SDS-PAGE, whole lanes cut in three pieces …; proteins enriched in the induced sample

binding	Molecule
binds	FUS RNA binding protein (from UniProt P35637 1-526)
binds	EWS RNA binding protein 1 (from UniProt Q01844 1-656)
binds	DEAD/H box 5 (DDX5) (from UniProt P17844 1-614)
binds	DEAD-box helicase 17 (from UniProt Q92841 1-729)
binds	transcription factor Dp-1 (from UniProt Q14186 1-410)
binds	serine/threonine kinase 38 (from UniProt Q15208 1-465)
binds	transcription factor Dp-2 (protein, UniProt Q14188 1-446) MTAKNVGLTSTNAEVRGFIDQNLSPTKGNISFVAFPVSNTNSPTKILPKTLGPINVNVGPQMIISTPQRLTSSGSVLIGSPYTPAPAMVTQTHIAEATGWVPGDRKRARKFIDSDFSESKRSKKGDKNGKGLRHFSMKVCEKVQRKGTTSYNEVADELVSEFTNSNNHLAADSAYDQKNIRRRVYDALNVLMAMNIISKEKKEIKWIGLPTNSAQECQNLEIEKQRRIERIKQKRAQLQELLLQQIAFKNLVQRNRQNEQQNQGPPALNSTIQLPFIIINTSRKTVIDCSISSDKFEYLFNFDNTFEIHDDIEVLKRMGMSFGLESGKCSLEDLKLAKSLVPKALEGYITDISTGPSWLNQGLLLNSTQSVSNLDLTTGATLPQSSVNQGLCLDAEVALATGQFLAPNSHQSSSAASHCSESRGETPCSFNDEDEEDDEEDSSSPE

Results are given in words; binding and its absence hold for the method and conditions named. In cells and extracts the contact can be indirect. These calls come from enrichment with a bait or labelling near it, and not all partners need be listed.
